In PubChem BioAssay AID463193 (University of Pittsburgh Molecular Library Screening Center, 2010):
This is one part of the list.

Assay: GFP-LC3 puncta formation changes – imaging, high-content, MEF GFP-LC3, primary screen (AID 463193);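 note: cell loss after 18 h compound exposure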
Settings: autophagy, measured here: cell loss, nuclei count, at 10 µM

Question: Which toxicity does the source give for `Cc1c(NP(C)(=O)Oc2ccc(C(C)C)cc2)c(=O)n(-c2ccccc2)n1C` (stereo not drawn) here?
Answer: Its toxicity is -0.868%.

Question: With `CC(C)CC(=O)NC(Sc1ccc(Cl)cc1)C(Cl)(Cl)Cl` (stereo not drawn) as the molecule, how does the toxicity read?
Answer: Its toxicity is 1.54%.

Question: With `O=[N+]([O-])c1cc([N+](=O)[O-])c(Nc2ccccn2)c([N+](=O)[O-])c1` as the molecule, how does the toxicity read?
Answer: The toxicity was 10.9%.

Question: For `Oc1ccccc1CNc1ccccn1`, which toxicity is on record?
Answer: Its toxicity is -18.1%.

Question: With `O=C(NC(Sc1ccncn1)C(Cl)(Cl)Cl)c1ccccc1` (stereo not drawn) as the molecule, how does the toxicity read?
Answer: The toxicity was 5.93%.

Question: Which toxicity does the source give for `Cc1c2non([O-])c-2c(C)[n+](=O)[n+]1[O-]` here?
Answer: The toxicity was -1.29%.

Question: With `CP(=O)(Nc1ccccn1)Oc1ccccc1` (stereo not drawn) as the molecule, how does the toxicity read?
Answer: Its toxicity is -8.19%.

Question: Which toxicity does the source give for `COc1ccccc1OP(C)(=O)Nc1ccc(C)cc1C` (stereo not drawn) here?
Answer: Its toxicity is -4.29%.

Question: With `CCc1ccc(OP(C)(=O)O)cc1` as the molecule, how does the toxicity read?
Answer: The toxicity was 3.47%.

Question: Which toxicity does the source give for `NC(=O)c1cc([N+](=O)[O-])cc([N+](=O)[O-])c1N` here?
Answer: Its toxicity is -3.91%.

Question: For `Cc1ccc(N/C(=N/P(=O)(N2CCOCC2)N2CCOCC2)N2CCOCC2)cc1`, which toxicity is on record?
Answer: The toxicity was 0.108%.

Question: With `COc1ccccc1OP(=O)(Nc1ccc(C)cn1)Oc1ccccc1OC` as the molecule, how does the toxicity read?
Answer: The toxicity was -12.7%.

Question: With `COc1ccc(OP(C)(=O)Nc2ccccn2)cc1` (stereo not drawn) as the molecule, how does the toxicity read?
Answer: Its toxicity is 0.0206%.

Question: With `CN1CCCC(OC(=O)C(c2ccccc2)c2ccccc2)C1` (stereo not drawn) as the molecule, how does the toxicity read?
Answer: Its toxicity is 3.01%.

Question: With `Clc1ccc(Cl)c(NC2=NCC(CBr)S2)c1` (stereo not drawn) as the molecule, how does the toxicity read?
Answer: The toxicity was 11.1%.

Question: For `CN(C)CCOC(=O)C(O)(c1ccccc1)C1CCCC1` (stereo not drawn), which toxicity is on record?
Answer: Its toxicity is 24.9%.

Question: With `Cc1nc2ccc3ccccc3c2o1.O=[N+]([O-])c1cc([N+](=O)[O-])c(O)c([N+](=O)[O-])c1` as the molecule, how does the toxicity read?
Answer: The toxicity was -9.28%.

Question: Which toxicity does the source give for `CCN(N=Nc1nonc1N)c1nonc1N` here?
Answer: The toxicity was 4.76%.

Question: With `CP(=O)(Nc1ccc(Cl)cc1Cl)Oc1ccccc1` (stereo not drawn) as the molecule, how does the toxicity read?
Answer: The toxicity was -0.18%.

Question: With `CP(=O)(OCCOc1ccccc1)OCCOc1ccccc1` as the molecule, how does the toxicity read?
Answer: Its toxicity is -6.63%.

Question: For `Cc1cc(C)cc(OP(C)(=O)Nc2cccc(C(F)(F)F)c2)c1` (stereo not drawn), which toxicity is on record?
Answer: Its toxicity is 12.3%.

Question: Which toxicity does the source give for `Cc1cc(SC(NC(=O)c2ccc(F)cc2)C(Cl)(Cl)Cl)ncn1` (stereo not drawn) here?
Answer: Its toxicity is 5.75%.

Question: Which toxicity does the source give for `CCOP(=O)(Nc1ccccc1)OCC` here?
Answer: Its toxicity is -35.6%.

Question: With `COc1ccccc1OP(C)(=O)Nc1ccc(C)c(C)c1` (stereo not drawn) as the molecule, how does the toxicity read?
Answer: Its toxicity is 14%.

Question: For `COc1ccc(OP(C)(=O)Nc2ccccc2Br)cc1` (stereo not drawn), which toxicity is on record?
Answer: Its toxicity is 27.6%.

Question: With `O=[N+]([O-])c1ncn(CCn2ncnc2[N+](=O)[O-])n1` as the molecule, how does the toxicity read?
Answer: Its toxicity is -11.9%.

Question: With `CCOC(=O)c1ccc(NP(C)(=O)Oc2ccc(Cl)cc2)cc1` (stereo not drawn) as the molecule, how does the toxicity read?
Answer: The toxicity was 7.36%.

Question: For `CP(=O)(OC12CC3CC(CC(C3)C1)C2)OC12CC3CC(CC(C3)C1)C2`, which toxicity is on record?
Answer: Its toxicity is -9.79%.

Question: With `COc1ccccc1OP(C)(=O)Nc1ccccc1Br` (stereo not drawn) as the molecule, how does the toxicity read?
Answer: The toxicity was 3.51%.

Question: Which toxicity does the source give for `CC(C)(C)c1ccc(OP(C)(=O)O)cc1` here?
Answer: The toxicity was 3.36%.

Question: Which toxicity does the source give for `CCN(/C(=N/P(=O)(N1CCOCC1)N1CCOCC1)N1CCOCC1)c1ccc(OC)cc1` here?
Answer: Its toxicity is -0.905%.

Question: With `CP(=O)(Nc1ccc(Cl)cc1)Oc1ccc(F)cc1` (stereo not drawn) as the molecule, how does the toxicity read?
Answer: Its toxicity is 1.69%.

Question: For `CN(C)C(=O)c1c([N+](=O)[O-])cc([N+](=O)[O-])cc1[N+](=O)[O-]`, which toxicity is on record?
Answer: The toxicity was 10.4%.

Question: With `CC(C)=N/N=C(\N)N[N+](=O)[O-]` as the molecule, how does the toxicity read?
Answer: Its toxicity is -16.4%.

Question: Which toxicity does the source give for `CN(C)C(=O)OCCc1n(C)cc[n+]1C` here?
Answer: Its toxicity is -12.4%.

Question: Which toxicity does the source give for `CC1CCN(C(=O)Oc2c(Cl)cc(Cl)c3cccnc23)CC1` here?
Answer: Its toxicity is 12.9%.

Question: Which toxicity does the source give for `CCN(CC)CC(O)COC(=O)C(O)(c1ccccc1)C1CCCCC1` (stereo not drawn) here?
Answer: The toxicity was 10.5%.

Question: With `COc1ccc(OP(C)(=O)Nc2ccc(Br)cc2)cc1` (stereo not drawn) as the molecule, how does the toxicity read?
Answer: The toxicity was 3.21%.

Question: For `COc1ccc(C2=NCC(CBr)S2)cc1` (stereo not drawn), which toxicity is on record?
Answer: Its toxicity is -11.5%.

Question: With `O=[N+]([O-])c1cccc2n[nH]nc12` as the molecule, how does the toxicity read?
Answer: The toxicity was -1.35%.

Question: With `CC(=O)N1C2C3N(C(C)=O)C1C1N(C(C)=O)C(C(N1C(C)=O)N3C(C)=O)N2C(C)=O` as the molecule, how does the toxicity read?
Answer: Its toxicity is 4.11%.

Question: For `COc1ccccc1OP(C)(=O)Nc1c(C)n(C)n(-c2ccccc2)c1=O` (stereo not drawn), which toxicity is on record?
Answer: The toxicity was 3.31%.

Question: Which toxicity does the source give for `CP(=O)(Oc1ccccc1)N1CCOC1=O` (stereo not drawn) here?
Answer: Its toxicity is 70.3%.

Question: For `Cc1ccc(NP(=O)(Oc2ccccc2)Oc2ccccc2)nc1`, which toxicity is on record?
Answer: Its toxicity is 9.62%.

Question: Which toxicity does the source give for `CCc1ccc(OP(C)(=O)Nc2cccnc2)cc1` (stereo not drawn) here?
Answer: The toxicity was 9.8%.

Question: Which toxicity does the source give for `CCc1nc2c(n1)c1c(non1O)c1c2no[n+]1[O-]` here?
Answer: Its toxicity is 15.3%.

Question: For `O=[N+]([O-])c1cc([N+](=O)[O-])c(CCNc2ccccc2)c([N+](=O)[O-])c1`, which toxicity is on record?
Answer: Its toxicity is 23.6%.

Question: For `CP(=O)(Nc1ccc2c(c1)OCCO2)Oc1ccccc1` (stereo not drawn), which toxicity is on record?
Answer: Its toxicity is -3.33%.

Question: With `Cc1ccccc1NP(C)(=O)Nc1ccccc1C` as the molecule, how does the toxicity read?
Answer: Its toxicity is -6.89%.

Question: Which toxicity does the source give for `CC(C)C(=O)NC(Sc1ccccc1)C(Cl)(Cl)Cl` (stereo not drawn) here?
Answer: The toxicity was 9.63%.

Question: Which toxicity does the source give for `O=P(Nc1nccs1)(c1ccccc1)c1ccccc1` here?
Answer: Its toxicity is 1.15%.

Question: With `CCOP(C)(=S)SCC(=O)NC(C)(CC)C(=O)O` (stereo not drawn) as the molecule, how does the toxicity read?
Answer: Its toxicity is -1.17%.

Question: Which toxicity does the source give for `CC(=O)NC(SC(=S)N(C)C)C(Cl)(Cl)Cl` (stereo not drawn) here?
Answer: The toxicity was -3.85%.

Question: Which toxicity does the source give for `O=[N+]([O-])c1cc([N+](=O)[O-])c(NCC2CCS(=O)(=O)C2)c([N+](=O)[O-])c1` (stereo not drawn) here?
Answer: Its toxicity is 13.8%.

Question: With `C(Cc1nn[nH]n1)Cc1nn[nH]n1` as the molecule, how does the toxicity read?
Answer: The toxicity was -8.95%.

Question: Which toxicity does the source give for `O=C(OC1CN2CCC1CC2)c1cccc(Cl)c1` (stereo not drawn) here?
Answer: Its toxicity is 12.2%.

Question: For `COc1ccc(OP(C)(=O)Nc2cccc(Br)c2)cc1` (stereo not drawn), which toxicity is on record?
Answer: The toxicity was 25.9%.

Question: Which toxicity does the source give for `O=P(Nc1ccccn1)(c1ccc(Br)cc1)c1ccc(Br)cc1` here?
Answer: Its toxicity is 12.1%.
